Source: patent US20220175675A1, “ENCAPSULATING MOLECULES IN FAT GLOBULES” (The Regents of the University of California, priority 2019, published 2022)
“Also recorded” adds a separate entry of the source.

Experiment: Multi-photon fluorescence microscopy of DMEQ-TAD-labelled VD3 in MFGs
Settings: DMEQ-TAD-labelled VD3, bovine MFGs; listed as VD3

C=C1CC[C@H](O)C/C1=C/C=C1\CCC[C@]2(C)[C@@H]([C@H](C)CCCC(C)C)CC[C@@H]12 [Cholecalciferol]
distribution of VD3 fluorescent signal in MFGs: even distribution of fluorescent signal through the structure of MFGs; also recorded: homogenous localization
